Results are given in words; binding and its absence hold for the method and conditions named. In cells and extracts the contact can be indirect. For part of these data: A result given as binding can be weak or reduced; the word gives no strength. Tags and fused reporters may be left off the sequences shown.
Legend:
Assay in all cases: pull-down; GST-MYPT1 fragment and GFP-kinase fragment co-transfected in COS7 cells; lysate incubated with Glutathione Sepharose beads 1 h at 4 °C in 20 mM Tris-HCl pH 7.5, 1 mM EDTA, 1 mM DTT, 50 mM NaCl, 0.5% NP-40; washed three times; immunoblot with anti-GST or anti-GFP
[1] = target: T1, GST-MYPT1 central fragment (296–597 aa) (rat) (UniProt Q10728)
T1 sequence: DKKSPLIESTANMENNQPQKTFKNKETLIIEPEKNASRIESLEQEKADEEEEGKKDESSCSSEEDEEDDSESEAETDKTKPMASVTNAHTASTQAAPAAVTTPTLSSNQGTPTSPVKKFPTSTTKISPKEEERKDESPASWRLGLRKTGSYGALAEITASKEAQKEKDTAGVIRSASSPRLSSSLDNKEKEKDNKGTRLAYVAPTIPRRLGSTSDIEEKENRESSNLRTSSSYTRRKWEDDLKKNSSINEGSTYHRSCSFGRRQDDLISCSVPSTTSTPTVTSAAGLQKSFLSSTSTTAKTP

[2] = target: T2, GST-MYPT1-655–703 aa (rat) (UniProt Q10728)
T2 sequence: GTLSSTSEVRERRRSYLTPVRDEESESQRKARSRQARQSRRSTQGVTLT

[3] = target: T3, GST-MYPT1-758–868 aa-854A/855A (rat) (UniProt Q10728)
T3 sequence: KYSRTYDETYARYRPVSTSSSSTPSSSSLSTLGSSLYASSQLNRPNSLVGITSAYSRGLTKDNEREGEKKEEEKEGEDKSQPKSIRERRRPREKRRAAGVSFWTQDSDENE

“GFP-Rho-kinase-cat-L (6–553 aa, long form of catalytic fragment) (bovine) (domain or fragment)” was tested, and the binding [1] was “no binding”, the binding [2] was “no binding” and the binding [3] was “binds”.

Reference: paper PMC8869655, “Identification of the Kinase-Substrate Recognition Interface between MYPT1 and Rho-Kinase” (Biomolecules, 2022)
